# Assay results

Data taken from PubChem BioAssay AID1159506, deposited by NCATS (2015).

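Luminescence from an EWS-FLI1 target-promoter (NR0B1) reporter, set against a CMV-promoter reporter, two days after silencing single genes in TC32 Ewing sarcoma cells. Each siRNA was applied at 20 nM. A z-score of the log NR0B1-over-CMV signal, less the median of siRNAs with the same seed; more negative means a stronger specific loss of the NR0B1 reporter.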

This is part of the screen; most of the strongest results are not listed here. Sequences are the guide (antisense) strand, without overhang.

siRNA,gene,seed-corrected z-score
UUCGAUUUUUAUUAUUGCG,C12orf50,0.1758
UCUGUCUAAGUAGUAACUC,SMAD4,-0.4614
UUAUUGUGAAAGUCUCACC,FNDC3B,0.3665
UGUGAGAUCGGUCAGAAGC,WDYHV1,0.2425
UUCUUUCUCUAGAAUGUCC,SUPT5H,-0.4236
UAGCUCAUGAUUUAUACCC,C7orf71,0.06559
UAGUAGCUGCGGACUAUGC,SAPCD2,-0.7521
UCCACAAACAGUUCCGCGG,POLE4,0.1346
UCAUUCCCAAACACUGAUG,NSRP1,0.3965
UUCUUUCUAAACCAAUUAC,GOLT1B,0.1799
UGUAUGUGGAUGGAGAUCC,MYLK3,1.059
UGCGUGUGCAGGUUCUUGC,SDF2L1,0.7478
UGUACCAAUAACACUGUCC,C5orf60,1.386
UCUUUGACCCUAACUAUAC,METTL22,0.5758
UUUGGUUCAAGAGCCCAUA,MTNR1B,-0.01665
UCUGCUCGUACUGGUCACG,KRT16,-0.8149
UAAUCACCUGUAAUUGUGG,OR6C74,-0.497
UCAAUAGCUUCAGUUCAUC,S100G,-1.894
UAUGCGGUGACAGUCAUUC,DCP1A,-1.277
UAGGCUCUGAGAUGAAGCU,SLC7A10,-0.03071
UUCAAUGUAUCGUCGAUGU,EMC10,-0.1692
UUAAACGAGAUGAAAAGUC,WDR49,-0.152
UUUCAUAGAACAGAGUUCC,CRISPLD2,-0.2981
UUAGUGAAUCUCUUGAUAC,USP39,0.3075
UAUUCUAACCUGGAGUAGU,RPS2P20,-0.2375
UCAAAGGUGUCAUCUGCCC,TCEB2,-1.08
AUUGUUGUGACCAUCAUGG,GORAB,-0.09825
UCCAGGAACAAUAUCAGGC,LINC00239,-0.3879
UACGUACUUAAAGUGUUCC,AKAP8L,-1.657
UGGAUUACGAAAAGCCUCU,ARHGAP27,0.5359
UGUCGAUUUUCUGGGAUGG,KANK1,-0.4798
AAACUAUCUAGGGCAAGGG,HYAL2,0.6085
AAUGCUGUUACUGCCUCGG,OR2D2,0.7143
UUUGGUUCCCUGGGAAUCU,GRM6,-0.5022
UACACGAUCAGGUAGCCGG,PITPNM1,-0.664
AUCUCUAUCAAAGUAGGUG,HMGCS1,-0.8147
UCAGGCGUGACAUCAAGAG,LOC729369,0.4637
UCAUAUCCAAGAGUCAGGG,MEOX1,-0.2406
UACCAAUGAGUGAAAACCC,REC114,0.525
UUCUCAAUGAGCUGGUUGG,LDLRAP1,0.04749
UGAGUUUAGACCGAAGACC,ZNF83,0.8962
UCCUUUUCCGUCUCCUUUG,DRD3,-0.8065
UGCAUGUUCAUAGUCAUCC,RNMT,-0.2351
UAGGUGUUCACGUUCUCUU,DNAJC5,-0.6096
UGUUGUCCCAGUUGAUAUG,ASF1B,-0.07052
UACUGUUUGAAUACACUGU,NGF,-0.08118
UACGGUUCACCUCAAAUGG,RFWD3,-0.0965
AUAACUUCCUGAAUUGAGC,TAS2R5,0.8372
UCCGGAUGAAGUACACAGC,ZNF3,-0.2144
AUCCAUGUUAGAAUCCUCC,RASAL1,1.071
AUUGUAACGACGGAGCUGU,LINC00999,-0.3952
UGUAGAGGCAUCUCGGUUU,HMGN4,0.3044
UUCAGGGUUCUCAAAUUCC,LMTK3,-0.1984
UCUUCGUCAGUGUAGGUGC,FARSB,0.05348
UCACGGUCCUCUUUCAGAG,IGFBP7-AS1,-0.9199
AUAGCAACAGCUUUCCGCC,MBD6,1.269
UUACGGACAAUCUCACCCA,HK2,0.05563
AGAAUAACCAGUCACAUGC,UBASH3B,-0.0781
UUGCCUUCGAAGUUGUUUG,VAMP4,-0.2235
UCAGUAUGUCUAAUCUUGC,PSMC6,-1.308
UUCCUUCAAGGCAUUGACU,CLEC3A,0.519
UCAAGAGUAAAUUCAUUGG,CYP19A1,0.1135
UUCGUCAUCAAAACAUAGC,ZNF425,-0.3133